The subject of the assay is Salmonella enterica serovar Typhimurium SL1344. Nature of the assay: bacterial growth OD600 after 18 h with compound and polymyxin B; higher = more bacterial growth (less inhibition). The conditions noted are these: 50 µM, Mueller-Hinton broth.

The list shows a part of the results. These are raw signals, not scaled to a control.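 First-pass screen: polymyxin B was added at a level that permeabilizes the Salmonella outer membrane while sparing the inner membrane. DMSO wells, with and without polymyxin B, defined maximum growth. Because plates differed from one another, each plate's data were ranked separately and the compounds with the lowest OD600 were carried forward as hits.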

Regarding `COc1cccc(C(=O)N(Cc2cccc(OCc3ccc(F)cc3)c2)C2CCCC2)c1OC`, the “bacterial growth OD600” value (polymyxin B 0.75 µg/mL) stood at 0.004.
As to `CC(C)c1noc(-c2ccc(N3CCNC(=O)C3C(C)C)nc2)n1` (stereo unspecified), the “bacterial growth OD600” value (polymyxin B 0.75 µg/mL) came to 0.833.
In the case of `CSc1ccc(C(=O)C2CCCN(C(=O)c3cc4ccccc4oc3=O)C2)cc1` (stereo unspecified), the “bacterial growth OD600” value (polymyxin B 1 µg/mL) was 0.608.
`COc1ccc(F)c(CC2(CCC(=O)N(CC3CCC3)CC3CCCO3)CCC(=O)N2)c1` (stereo unspecified): the “bacterial growth OD600” value (polymyxin B 0.75 µg/mL) worked out at 0.783.
Consider `O=C(CC1(c2ccccc2Cl)CC(=O)N(C2CCCC2)C1=O)N1CCN(C(=O)c2ccco2)CC1` (stereo unspecified), for which, under “polymyxin B 0.75 µg/mL”, the “bacterial growth OD600” value is 0.858.
As to `O=C(c1coc(COc2cccc(F)c2F)n1)N1CCCC1`, where the note is “polymyxin B 1 µg/mL”, the “bacterial growth OD600” value turned out to be 0.883.
Consider `OCc1ccc(CN2CCCC(CCc3c(F)cccc3F)C2)o1` (stereo unspecified), for which the “bacterial growth OD600” value (polymyxin B 0.75 µg/mL) came out at 0.818.
In the case of `COc1cccc(CN(C)C(=O)c2ccc3oc(Cc4ccccc4)nc3c2)c1`, where the note is “polymyxin B 1 µg/mL”, the “bacterial growth OD600” value is 1.1.
As to `CN1CCN([C@@H]2CCN(Cc3ccc(N(C)c4ccccc4)cc3)C[C@H]2O)CC1`, the “bacterial growth OD600” value (polymyxin B 0.75 µg/mL) stood at 0.793.
Turning to `Cc1ccc(CN(C)C(=O)c2ccc(OC3CCN(S(=O)(=O)N(C)C)CC3)cc2)o1`, the “bacterial growth OD600” value (polymyxin B 1 µg/mL) turned out to be 1.35.
Regarding `CC#CC(=O)N1CCc2onc(C(c3ccccc3)c3ccccc3)c2C1`, the “bacterial growth OD600” value (polymyxin B 0.75 µg/mL) came to 0.006.
Take `CCOc1ccccc1CN1CCC(CO)(Cc2ccccc2Cl)CC1`: where the note is “polymyxin B 1 µg/mL”, the “bacterial growth OD600” value was 0.695.
As to `CCc1noc(C)c1C(=O)N1Cc2cc(C)ccc2OC(c2ccsc2)C1` (stereo unspecified), for the setting “polymyxin B 0.75 µg/mL”, the “bacterial growth OD600” value worked out at 0.023.
Take `O=C1NCCCC[C@@H]1Nc1ccc(-c2nc(COc3ccccc3)no2)cn1`: the “bacterial growth OD600” value (polymyxin B 1 µg/mL) came to 0.86.
For `CCOc1ccc2nc(N3CCCC3C(=O)NCCCn3cccn3)nc(C)c2c1` (stereo unspecified), the “bacterial growth OD600” value (polymyxin B 0.75 µg/mL) was 0.808.
For `O=C(c1ccoc1)N1CCC2(CCCN(CC3CC3)C2=O)C1` (stereo unspecified), under “polymyxin B 1 µg/mL”, the “bacterial growth OD600” value amounted to 0.912.
`C=CCC(=O)N1CCc2onc(-c3ccc(Cl)cc3)c2C1`: the “bacterial growth OD600” value (polymyxin B 0.75 µg/mL) turned out to be 0.915.
Still for that read-out and setting: next, `COc1ccc(CC(=O)NCC2CCCN(C(=O)c3cn4c(C)cccc4n3)C2)cc1` (stereo unspecified): 0.815.
`COc1ccc(-c2nn(-c3ccccc3C)cc2CN2CCC(C(N)=O)CC2)cc1F`: where the note is “polymyxin B 1 µg/mL”, the “bacterial growth OD600” value stood at 0.937.
Consider `COc1ccc(-c2cc(C)cc3c2OC(CNC(=O)CC2CCCCC2)C3)nn1` (stereo unspecified), for which the “bacterial growth OD600” value (polymyxin B 0.75 µg/mL) worked out at 0.655.
For the compound `COc1ccc(C)cc1S(=O)(=O)N1CCC(CO)(Cc2cccc(C(F)(F)F)c2)CC1`, the “bacterial growth OD600” value (polymyxin B 1 µg/mL) is 0.

These data come from the supplement of paper PMC12889115.
